The list shows a part of the results.
Compound: CC1Cc2ccccc2N1C(=O)C1CCCN(C1)C(=O)CCl (mixture of isomers) [TRIM25 ligand 11 (diastereomer mixture)]
Assay: probe-labelled cysteine peptide fold change vs DMSO (competition) (log2 fold change); higher = less target engagement (more negative = stronger competition)
Conditions: 50 µM; THP-1; incubation time: 4 h
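Also: competitive chemoproteomic profiling in live THP-1 cells with an iodoacetamide desthiobiotin (IA-DTB) probe, comparing probe-labelled peptide intensities in compound-treated cells against DMSO-treated controls.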

| Target | probe-labelled cysteine peptide fold change |
| --- | --- |
| SMARCC2_Q8TAQ2_80_CFLDFK (UniProt Q8TAQ2) | 0.128 |
| SLC27A2_O14975_149_SLLHCFQCCGAK (UniProt O14975) | 0.214 |
| SNRNP200_O75643_1592_FLHCTEK (UniProt O75643) | 0.0176 |
| SMARCC2_Q8TAQ2_486_LNPQEYLTSTACR (UniProt Q8TAQ2) | -0.203 |
| SLPI_P03973_51+57_YKKPECQSDWQCPGK (UniProt P03973) | -0.883 |
| SLK_Q9H2G2_552_DVISNTSDVIGTCEAADVAQK (UniProt Q9H2G2) | -0.072 |
| SLC39A8_Q9C0K1_113_FSVICPAVLQQLNFHPCEDRPK (UniProt Q9C0K1) | -0.0492 |
| SNRNP200_O75643_428_CQLPDGSFR (UniProt O75643) | -0.195 |
| SLC7A1_P30825_628_TPDGNLDQCK (UniProt P30825) | -0.138 |
| SMAD4_Q13485_127_CDSVCVNPYHYER (UniProt Q13485) | 0.0905 |
| SNRNP200_O75643_1702_CVIMCQGSKK (UniProt O75643) | -0.313 |
| SMARCA4_P51532_1046_ICNHPYMFQHIEESFSEHLGFTGGIVQGLDLYR (UniProt P51532) | -0.123 |
| SMYD5_Q6GMV2_101_LTGKPGQVLPHPELCTVR (UniProt Q6GMV2) | 0.00693 |
| SMARCC2_Q8TAQ2_635_TQDECILHFLR (UniProt Q8TAQ2) | 0.0104 |
| SMC4_Q9NTJ3_260_GQTEHDEGMLEYLEDIIGCGR (UniProt Q9NTJ3) | -0.135 |
| SMC2_O95347_630_AMEFVFGTTFVCDNMDNAK (UniProt O95347) | -0.149 |
| SLFN13_Q68D06_884_TADPAILPNILICLASR (UniProt Q68D06) | -0.00266 |
| SMCR8_Q8TEV9_644_DNSCEGFPAYELDPSHLLASR (UniProt Q8TEV9) | -0.199 |

Some of the entries so far, tab-delimited.
Target	probe-labelled cysteine peptide fold change
SNRNP200_O75643_1702_CVIMCQGSKK (UniProt O75643)	-0.313
SMARCA4_P51532_1046_ICNHPYMFQHIEESFSEHLGFTGGIVQGLDLYR (UniProt P51532)	-0.123

Additional entries

| Target | probe-labelled cysteine peptide fold change |
| --- | --- |
| SMARCA5_O60264_976_ENVYDELRQCIR (UniProt O60264) | 0.0608 |
| SMC1A_Q14683_613+619_ALQYACGNALVCDNVEDARR (UniProt Q14683) | 0.0553 |
| SMARCC1_Q92922_761_VDPTYGLESSCIAGTGPDEPEK (UniProt Q92922) | 0.107 |
| SMARCC1_Q92922_761_VDPTYGLESSCIAGTGPDEPEKLEGAEEEK (UniProt Q92922) | -0.234 |
| SLC44A1_Q8WWI5_113_SVALCVAACPR (UniProt Q8WWI5) | -0.0751 |
| SNRNP200_O75643_2011_FCNRYPNIELSYEVVDK (UniProt O75643) | -0.0103 |
| SMCHD1_A6NHR9_1445_IKDNDKEDGCFYFR (UniProt A6NHR9) | -0.211 |
| SND1_Q7KZF4_826+837_DIQNTQCLLNVEHLSAGCPHVTLQFADSK (UniProt Q7KZF4) | -0.183 |
| SMC5_Q8IY18_726_LMEQDTCNLEEEERK (UniProt Q8IY18) | -0.261 |
| SLFN11_Q7Z7L1_791_YLTVEQIMTCVADTCRR (UniProt Q7Z7L1) | -0.171 |
| SNRNP200_O75643_1359_TICAEFAILR (UniProt O75643) | 0.0853 |
| SMC5_Q8IY18_393_TTENCENLQPQIDAITNDLRR (UniProt Q8IY18) | -0.0267 |
| SMS_P52788_229_MVTMVEIDQMVIDGCKK (UniProt P52788) | -0.175 |
| SMC1A_Q14683_1210_AESLIGVYPEQGDCVISK (UniProt Q14683) | 0.0393 |
| SLK_Q9H2G2_204_DSFIGTPYWMAPEVVMCETSK (UniProt Q9H2G2) | -0.0938 |
| SMURF2_Q9HAU4_393_QELSQQQPQAGHCR (UniProt Q9HAU4) | -0.215 |
| SMC1A_Q14683_613_ALQYACGNALVCDNVEDARR (UniProt Q14683) | 0.0466 |
| SNRNP200_O75643_588_EEISATQIIVCTPEK (UniProt O75643) | 0.241 |

— the supplement of paper PMC12067093, “Discovery and optimisation of a covalent ligand for TRIM25 and its application to targeted protein ubiquitination” (Chemical Science, 2025)
